The target in assay [1] is His6-SpG8 (S. pombe) (UniProt Q9USY8). Description: pull-down; co-expression in E. coli from polycistronic constructs, Ni-NTA purification through the His6-tagged subunit, SDS-PAGE.
Assay [2] addresses T1, His6-SpG2^ΔN80 (S. pombe) (UniProt P0CU08).
T1 sequence: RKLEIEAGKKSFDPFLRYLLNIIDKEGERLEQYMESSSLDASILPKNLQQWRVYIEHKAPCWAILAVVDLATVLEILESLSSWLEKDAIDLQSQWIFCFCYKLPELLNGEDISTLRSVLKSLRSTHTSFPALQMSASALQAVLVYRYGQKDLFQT
Described as above.

Protein sequences, listed by entry. Tags and fused reporters are not part of them. Lines headed by an entry give the natural chain unless they say otherwise; changes in a name come on top.
UniProt Q9USY8: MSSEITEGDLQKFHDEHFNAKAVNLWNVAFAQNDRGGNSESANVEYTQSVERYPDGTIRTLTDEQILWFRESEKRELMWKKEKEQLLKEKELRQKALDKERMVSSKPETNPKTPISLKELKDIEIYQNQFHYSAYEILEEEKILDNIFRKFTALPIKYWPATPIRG
UniProt G2TRR1: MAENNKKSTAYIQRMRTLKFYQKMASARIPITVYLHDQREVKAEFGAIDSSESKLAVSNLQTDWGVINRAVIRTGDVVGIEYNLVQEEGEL

For assay [3], the target named is T2, SpSMN (two-hybrid fusion) (S. pombe) (UniProt Q09808).
T2 sequence: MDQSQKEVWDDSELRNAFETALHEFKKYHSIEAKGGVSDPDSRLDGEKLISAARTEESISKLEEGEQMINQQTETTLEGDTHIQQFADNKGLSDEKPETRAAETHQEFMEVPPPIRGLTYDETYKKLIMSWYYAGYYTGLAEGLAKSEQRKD
Description: two-hybrid; pASΔΔ baits in CG1945 mated with pACT2st preys in Y187; growth on –Trp–Leu–His plates, 30°C, 3–5 days.

Assay [4] deals with T3, His6-SpSMN (S. pombe) (UniProt Q09808).
T3 sequence: T2 sequence
Description: pull-down; co-expression in E. coli from polycistronic constructs, Ni-NTA purification through the His6-tagged subunit, SDS-PAGE.

These are yes or no findings as the source states them, for the method shown. A result given as binding can be weak or reduced; the word gives no strength. For part of these data: Sequences can lack the tags named with a protein. For part of these data: In cells and extracts the contact can be indirect.

As to “SpG7 (untagged, E. coli) (from UniProt G2TRR1)”, the binding result in assay [1] is listed as “binds”.
Take “SpSMN^Δ36–119 (S. pombe) (domain or fragment)”: the binding entry in assay [2] is listed as “binds”.
Take “SpSMN^Δ36–119S130D (S. pombe) (domain or fragment)”: the binding entry in assay [2] is on record as “binds”.
Turning to “SpSMN^Δ36–119A134E (S. pombe) (domain or fragment)”, in assay [2], the binding entry is reported as “binds”.
With “SpG8 (two-hybrid fusion) (from UniProt Q9USY8)”, the binding result in assay [3] is “binds”.
As for SpG8 (untagged, E. coli) (S. pombe), in assay [4], the binding entry was “binds”.

The record behind these values is publication PMC8287938, “Identification and structural analysis of the Schizosaccharomyces pombe SMN complex” (Nucleic Acids Research, 2021).
